From PubChem BioAssay AID1347076 (National Center for Advancing Translational Sciences (NCATS), 2019)
Hit rate of the full screen: of about 400,000 compounds, about 13,000 (3.2%) were called active. Inconclusive results, whose numbers are uncertain, are shown with a selection of clear calls. Calls come from the whole dose curve; as a rule, active = well fitted cell-killing curve with a large enough effect; inconclusive = small, poorly fitted or top-dose-only effect, or effect the other way; inactive = flat fitted curve, though single readings scatter. A potency beside an inconclusive call is a rough fit, not a confirmed value.

experiment: qHTS assay for MDR1-selective chemotherapeutics: Primary screen using the drug-selected MDR subline cells KB-V1; settings: KB-V1 MDR cells viability, CellTiter-Glo, 72 h; series mostly up to 46.1 µM; note: nearly all actives have a fitted effect of over 60% in size
Method in brief: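 Readout: CellTiter-Glo luminescence, 10 min after addition. Cells: KB-V1 MDR subline, 72 h at 37 degrees C with compound. Analysis: corrected, normalized data fitted to concentration-effect curves.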
Potency is the fitted concentration of half-maximal effect.

SMILES | Potency
COc1ccc(CCNc2ccc(S(=O)(=O)N3CCCC3)cc2[N+](=O)[O-])cc1 | inconclusive: 13 µM [cytotoxic, partial curve, poor fit]
O=[N+]([O-])c1cccc(Oc2ncccc2[N+](=O)[O-])c1 | inconclusive: 1.03 µM [rising, full curve]
c1ccc(-c2cc3nc(NCC4CC4)nc(NCC4CCCCC4)c3s2)cc1 | inconclusive: 9.2 µM [cytotoxic, partial curve]
O=C(OCc1ccccc1)N1CCC2CC1c1cc(N3CCN(C(=S)NCCc4ccccc4)CC3)ccc12 (stereo not drawn) | inconclusive: 29.1 µM [cytotoxic, single point]
CCC(C)NCCCOc1c(C)cc(C)cc1Br (stereo not drawn) | inactive
CCOC(=O)c1c(-c2ccccc2)csc1NC(=O)c1cc(-c2ccc(C)c(F)c2)on1 | inactive
Cc1cccc(C(=O)Nc2ccc(OCc3cc(=O)n4ccsc4n3)cc2)c1 | inconclusive: 29.1 µM [rising, single point]
Cc1ccccc1N1C(=O)C2ON(c3ccccc3)C(c3cccnc3)C2C1=O (stereo not drawn) | inconclusive: 29.1 µM [rising, single point]
C/C(=N\NC(=O)c1ccccc1O)c1c(O)cc(C)oc1=O | inconclusive: 29.1 µM [cytotoxic, single point]
CCOc1ccc(CCN2C(=O)C3C4CCC(O4)C3C2=O)cc1OCC (stereo not drawn) | inconclusive: 8.2 µM [cytotoxic, partial curve]
Cc1cc(OCC(=O)Nc2nccs2)c2c(C)cc(=O)oc2c1 | inactive
Cc1cc(/C=N/n2cnnc2)c(C)n1-c1cccc(Cl)c1 | inconclusive: 29.1 µM [cytotoxic, single point]
COc1ccccc1N1CCN(Cc2ccc(OC)c3ccccc23)CC1 | active: 16.4 µM
C[C@H](NC(=O)C1CCN(S(=O)(=O)c2ccccc2)CC1)C(=O)NCc1cccnc1 | inconclusive: 32.6 µM [cytotoxic, single point]
COc1ccc(N2CCc3c(C)nc4c(OC)cc(OC)cc4c32)cc1 | inconclusive: 11.6 µM [cytotoxic, partial curve]
Cc1ccc(Cl)cc1N1CCN(C(=O)CCCCCn2c(=O)[nH]c3ccccc3c2=O)CC1 | inactive
Clc1ccc(CN2CCN(c3ncccn3)CC2)c(Cl)c1 | inactive
CCc1ccc(NC(=O)C(CC)Sc2nc3ccsc3c(=O)n2CCC(=O)O)cc1 (stereo not drawn) | inconclusive: 9.2 µM [rising, partial curve, poor fit]
COc1ccc(C(=O)Nc2ccc(Oc3nc(C)nc4sc(-c5ccccc5)cc34)cc2)cc1OC | inconclusive: 29.1 µM [cytotoxic, single point]
Cc1ccc(C(C)C)c(OCC(=O)NCC(c2cccs2)N2CCOCC2)c1 (stereo not drawn) | inconclusive: 20.6 µM [cytotoxic, single point]
O=S(=O)(/N=C(/NC(=S)Nc1ccccc1)c1ccccc1)c1ccc(Cl)cc1 | inconclusive: 32.6 µM [rising, partial curve, poor fit]
O=C(NCc1ccccn1)c1ccc(Cl)c(S(=O)(=O)N2CCCCC2)c1 | inconclusive: 10.3 µM [cytotoxic, partial curve]

SMILES | Potency
CCCCC[C@H](C)N1C[C@@H](COCc2ccccc2)Oc2cc(N3CC[C@@H](O)C3)ccc2S1(=O)=O | inconclusive: 14.6 µM [cytotoxic, partial curve]
CCN1CCN(C(=O)c2ccc3c(c2)N(Cc2ccccc2F)C(=O)c2ccccc2S3=O)CC1 (stereo not drawn) | inactive
c1ccc(-c2nn3c(-c4ccccc4)nnc3s2)cc1 | inconclusive: 16.4 µM [cytotoxic, single point]
COc1ccc(Nc2c(CC(C)C)nc3nc(C)cc(C)n23)cc1 | inconclusive: 9.2 µM [cytotoxic, partial curve]
C/C(CC(=O)Nc1cc(Cl)ccc1Cl)=N\NC(=O)c1ccccc1Br | inconclusive: 18.4 µM [rising, single point]
CCc1nc2ccc(C(=O)NCCCN3CCCC3=O)cn2c1N(CC)CCN(C)C | inactive
Cc1c(Cl)cc(C(C)C)c(O)c1CN1CCOCC1 | inactive
O=C(NC(NC(=S)Nc1ccc(Cl)c(Cl)c1)C(Cl)(Cl)Cl)c1ccco1 (stereo not drawn) | inconclusive: 29.1 µM [cytotoxic, single point]
CCc1c(C)sc(NC(=O)c2cc(-c3cc(OC)ccc3OC)on2)c1C#N | inconclusive: 9.2 µM [cytotoxic, partial curve]
Cc1ccc(NS(=O)(=O)c2ccc(C(=O)N3CCN(c4ncccn4)CC3)cc2)cc1 | inconclusive: 4.61 µM [cytotoxic, partial curve]
CN(C)/C=N/c1cc(=O)[nH]c(=O)n1CC1CC1 | inconclusive: 20.6 µM [rising, partial curve]
CN(Cc1ccccc1)S(=O)(=O)c1ccc(Cl)c(C(=O)N2CCC2)c1 | active: 16.4 µM
CCOC(=O)C1=C(C)NC(C)=C(C(=O)OCC)C1C(=O)OCC(=O)Nc1ccc(NC(C)=O)cc1 | inconclusive: 7.31 µM [rising, partial curve, poor fit]
CCOc1cccc(OCCCn2c(-c3ccc(Br)cc3)nc3ccccc3c2=O)c1 | inconclusive: 16.4 µM [rising, partial curve]
O=C(CCc1ccccc1)Nc1nnc(-c2ccc3c(c2)CCCC3)o1 | inactive
CC(=O)c1cccc(NC(=O)COc2ccccc2C(=O)c2cc(C#N)c(=O)n(C3CCCCC3)c2)c1 | inactive
COc1ccccc1NC(=O)c1cc2ccccc2nc1C | inconclusive: 29.1 µM [cytotoxic, single point]
Cc1noc(C)c1COc1ccc(C(=O)N2CCCC(C(F)(F)F)C2)cc1 (stereo not drawn) | inconclusive: 10.3 µM [cytotoxic, partial curve]
CCOC(=O)CSc1cc(CS(C)(=O)=O)nc(-c2ccccn2)n1 | inconclusive: 1.84 µM [rising, full curve, poor fit]
C=C(C)CNC(=S)N/N=C(\C)c1ccc(OC)cc1 | active: 16.4 µM
CCn1c(=O)c(C(=O)Nc2ccccn2)c(O)c2ccccc21 | inconclusive: 18.4 µM [cytotoxic, single point]
